Record: PubChem BioAssay AID652243 (Drosophila RNAi Screening Center, 2013)
The screen tested about 24,000 reagents; shown is an unselected part of those with a known target gene and a result. In the full data, 246 (1%) are marked active. 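Plates not normalised; calls are printed but the firefly/Renilla ratio behind them is not deposited; fold cut for lowering reported inconsistently.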 Raw values vary from plate to plate and are shown uncorrected. The numbers tell different reagents against one gene apart. A plus sign joins genes that one reagent is predicted to hit. Not stated in the record: the amount of reagent.

- Purpose: 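Fly regulators of androgen-dependent reporter output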 (primary screen)
- Cell system: Drosophila S2R+ cells
- Knock-down reagent: long dsRNA against Drosophila genes
- Duration: 72 h (48 h, then 24 h hormone)
- Challenge: synthetic androgen R1881 at 10 nM for 24 h
- Read-out: 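Per-well raw luminescence of the androgen-driven firefly reporter and of the Renilla control, two replicates each, without normalisation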
- Scale: firefly reporter light: higher = more light from androgen-responsive reporter; Renilla control light: higher = more constitutive control signal (cell number, transfection)
- Hit rule: 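Hit when the log firefly-to-Renilla ratio dropped or increased by a fixed fold versus the mean of GFP or LacZ controls across duplicate plates; lowering cut given as 1.5 and as 3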
- Meaning of the calls: active = hit: reporter lowered or raised; inactive = no hit

predicted target | reagent | firefly reporter light, replicate 1 | firefly reporter light, replicate 2 | Renilla control light, replicate 1 | Renilla control light, replicate 2 | Outcome
PolZ1 | 1 | 1.15e6 | 3.83e5 | 2.83e6 | 1.19e6 | inactive
PolZ1 | 2 | 6.59e5 | 7.50e5 | 1.30e6 | 1.61e6 | inactive
Cyp6a17 | 1 | 1.71e6 | 1.86e6 | 3.08e6 | 3.02e6 | inactive
Bin1 | 1 | 2.29e5 | 1.91e5 | 3.14e6 | 2.45e6 | inactive
ATPsynC | 1 | 1.02e5 | 80139 | 8.44e5 | 4.47e5 | inactive
CG12934 | 1 | 47815 | 40786 | 8.52e5 | 6.50e5 | inactive
CG12934 | 2 | 7.14e5 | 1.05e6 | 1.33e6 | 1.39e6 | inactive
CG17122 | 1 | 2.04e5 | 2.15e5 | 1.90e6 | 2.78e6 | inactive
CG17122 | 2 | 4.85e5 | 3.80e5 | 1.38e6 | 1.47e6 | inactive
Lint-1 + rtv | 1 | 1.28e5 | 1.48e5 | 9.50e5 | 7.32e5 | inactive
CG42455 + vnc | 1 | 9.01e5 | 8.11e5 | 1.67e6 | 1.90e6 | inactive
CG9391 | 1 | 2.02e5 | 1.70e5 | 1.85e6 | 2.20e6 | inactive
CG9391 | 2 | – | – | – | – | inactive
Itgbn | 1 | 1.63e5 | 1.58e5 | 9.80e5 | 1.63e6 | inactive
5-HT1B | 1 | 1.54e5 | 1.72e5 | 2.61e6 | 2.84e6 | inactive
5-HT1B | 2 | 13611 | 13158 | 45963 | 44960 | inactive
5-HT1B | 3 | 4.33e5 | 6.29e5 | 9.01e5 | 8.49e5 | inactive
ppk | 1 | 74944 | 87230 | 1.23e6 | 1.26e6 | inactive
ppk | 2 | 4.05e5 | 5.38e5 | 5.92e5 | 5.29e5 | inactive
moody | 1 | 2.21e5 | 2.80e5 | 3.64e6 | 3.74e6 | inactive
GstE2 | 1 | 46070 | 61146 | 6.77e5 | 6.77e5 | inactive
GstE2 | 2 | 4.20e5 | 3.72e5 | 1.13e6 | 1.18e6 | inactive
CG33627 | 1 | 1.20e6 | 8.42e5 | 2.61e6 | 1.91e6 | inactive
CG34434 | 1 | 4.90e5 | 5.71e5 | 2.42e6 | 1.76e6 | inactive
CG34434 | 2 | 6.79e5 | 6.75e5 | 8.40e5 | 8.48e5 | inactive
CG34434 | 3 | 3.72e5 | 4.10e5 | 8.43e5 | 1.16e6 | inactive
CG33090 | 1 | 9.78e5 | 8.56e5 | 1.19e6 | 1.40e6 | inactive
CG33090 | 2 | 6.84e5 | 6.83e5 | 1.69e6 | 1.38e6 | inactive
topi | 1 | 63257 | 94123 | 1.33e6 | 1.83e6 | inactive
CG15358 | 1 | 1.30e5 | 1.14e5 | 9.49e5 | 1.07e6 | inactive
CG1138 | 1 | 50990 | 74829 | 1.08e6 | 1.00e6 | inactive
CG32687 | 1 | 4.08e5 | 3.08e5 | 4.82e6 | 3.26e6 | inactive
CG32687 | 2 | 3.40e5 | 3.18e5 | 2.05e6 | 2.73e6 | inactive
CG32687 | 3 | – | – | – | – | inactive
CG33060 | 1 | 2.28e5 | 2.17e5 | 2.02e6 | 1.88e6 | inactive
CG13016 | 1 | 51663 | 72111 | 5.36e5 | 5.36e5 | inactive
CG31370 | 1 | 6.35e5 | 8.45e5 | 1.80e6 | 1.64e6 | inactive
CG31883 | 1 | 1.42e6 | 1.13e6 | 3.29e6 | 2.52e6 | inactive
Hsp60D | 1 | 1.00e5 | 1.57e5 | 1.14e6 | 1.16e6 | inactive
Hsp60D | 2 | 4.45e5 | 4.77e5 | 1.41e6 | 1.30e6 | inactive
CG32115 | 1 | 8.86e5 | 1.03e6 | 1.43e6 | 1.74e6 | inactive
Bka | 1 | 1.86e5 | 1.82e5 | 1.04e6 | 1.52e6 | inactive
CG15754 | 1 | 3.38e5 | 5.07e5 | 1.98e6 | 2.99e6 | inactive
CG15754 | 2 | 7.32e5 | 7.06e5 | 7.19e5 | 6.01e5 | inactive
Syx18 | 1 | 1.12e5 | 1.01e5 | 7.89e5 | 6.69e5 | inactive
Cyp6a15Psi | 1 | 4.45e5 | 5.44e5 | 2.04e6 | 2.01e6 | inactive
Cyp6a15Psi | 2 | 2.40e5 | 5.52e5 | 1.21e6 | 1.87e6 | inactive
CG3323 | 1 | 1.53e5 | 1.83e5 | 2.74e6 | 2.94e6 | inactive
CG14377 | 1 | 86312 | 1.65e5 | 1.72e6 | 2.00e6 | inactive
CG14377 | 2 | 2.89e5 | 3.50e5 | 9.13e5 | 9.80e5 | inactive
E5 | 1 | 10827 | 13271 | 67334 | 85147 | inactive
E5 | 2 | 8.15e5 | 8.15e5 | 1.54e6 | 1.66e6 | inactive
E5 | 3 | 3.32e5 | 5.34e5 | 8.89e5 | 1.96e6 | inactive
CG7049 | 1 | 6.17e5 | 8.38e5 | 1.48e6 | 1.51e6 | inactive
CG7049 | 2 | 3.17e5 | 4.35e5 | 6.33e5 | 5.47e5 | inactive
chrb | 1 | 2.83e5 | 2.60e5 | 2.40e6 | 2.30e6 | inactive
chrb | 2 | 1.31e6 | 6.88e5 | 8.82e5 | 6.66e5 | inactive
CG15570 | 1 | 2.44e5 | 3.66e5 | 2.41e6 | 2.21e6 | inactive
lncRNA:CR32658 | 1 | 4.69e5 | 5.53e5 | 3.67e6 | 4.03e6 | inactive
lncRNA:CR32658 | 2 | 4.23e5 | 3.69e5 | 1.11e6 | 9.52e5 | inactive
pigeon | 1 | 1.12e6 | 8.22e5 | 6.23e5 | 1.13e6 | inactive
HIPP1 | 1 | 42194 | 64821 | 2.75e5 | 3.71e5 | inactive
HIPP1 | 2 | 5.87e5 | 3.13e5 | 2.65e6 | 2.09e6 | inactive
Or45a | 1 | 3.12e5 | 2.41e5 | 1.55e6 | 2.08e6 | inactive
Or45a | 2 | 4.44e5 | 3.51e5 | 7.24e5 | 5.56e5 | inactive
l(1)G0469 | 1 | 58440 | 46759 | 4.00e5 | 3.66e5 | inactive
l(1)G0469 | 2 | 8.77e5 | 7.73e5 | 5.32e6 | 4.89e6 | inactive
Or2a | 1 | 2.73e5 | 2.18e5 | 3.75e6 | 3.46e6 | inactive
CG42663 | 1 | 1.29e5 | 92970 | 1.14e6 | 1.10e6 | inactive
CG42663 | 2 | 3.00e5 | 2.21e5 | 1.99e6 | 1.55e6 | inactive
CG42663 | 3 | 9.38e5 | 6.43e5 | 1.49e6 | 1.33e6 | inactive
smid | 1 | 2.50e5 | 2.28e5 | 3.23e6 | 3.42e6 | inactive
smid | 2 | 1.12e6 | 1.01e6 | 1.83e6 | 1.61e6 | inactive
mRpS17 | 1 | 2.65e5 | 3.14e5 | 1.37e6 | 1.42e6 | inactive

Just “Renilla control light, replicate 1”, for 10 of the entries above:
CG32115: 1.43e6
Bka: 1.04e6
CG15754 #1: 1.98e6
CG15754 #2: 7.19e5
Syx18: 7.89e5
Cyp6a15Psi #1: 2.04e6
Cyp6a15Psi #2: 1.21e6
CG3323: 2.74e6
CG14377 #1: 1.72e6
CG14377 #2: 9.13e5
